# In the supplement of paper PMC10849652:
# By UniProt entry, the sequences of proteins in these tests, tags left out. Where a name states a change or a piece, a line headed by the entry shows the natural chain unless it says otherwise.
# UniProt Q8N5J2: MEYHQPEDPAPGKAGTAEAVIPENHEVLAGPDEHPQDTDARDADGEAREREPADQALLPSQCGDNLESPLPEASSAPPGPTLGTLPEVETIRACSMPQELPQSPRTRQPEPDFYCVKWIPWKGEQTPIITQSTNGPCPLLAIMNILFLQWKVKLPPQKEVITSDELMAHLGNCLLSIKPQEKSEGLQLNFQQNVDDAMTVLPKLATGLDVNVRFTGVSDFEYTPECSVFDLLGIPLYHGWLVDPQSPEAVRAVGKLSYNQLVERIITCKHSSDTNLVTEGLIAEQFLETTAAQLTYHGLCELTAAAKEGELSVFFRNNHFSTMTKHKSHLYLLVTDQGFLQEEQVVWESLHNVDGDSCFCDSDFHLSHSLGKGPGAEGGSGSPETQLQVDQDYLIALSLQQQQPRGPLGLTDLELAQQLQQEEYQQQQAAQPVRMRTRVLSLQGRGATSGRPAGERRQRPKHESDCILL
# UniProt Q9BV20: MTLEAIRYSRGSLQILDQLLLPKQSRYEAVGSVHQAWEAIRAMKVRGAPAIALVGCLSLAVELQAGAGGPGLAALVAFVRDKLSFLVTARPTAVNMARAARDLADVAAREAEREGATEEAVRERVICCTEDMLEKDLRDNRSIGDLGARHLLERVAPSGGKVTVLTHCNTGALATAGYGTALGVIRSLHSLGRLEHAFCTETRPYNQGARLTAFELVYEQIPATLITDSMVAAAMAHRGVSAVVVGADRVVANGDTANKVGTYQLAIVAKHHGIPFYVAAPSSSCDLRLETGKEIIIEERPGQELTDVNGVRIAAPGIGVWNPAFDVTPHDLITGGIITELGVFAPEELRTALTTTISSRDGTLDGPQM
# UniProt Q9BUB5: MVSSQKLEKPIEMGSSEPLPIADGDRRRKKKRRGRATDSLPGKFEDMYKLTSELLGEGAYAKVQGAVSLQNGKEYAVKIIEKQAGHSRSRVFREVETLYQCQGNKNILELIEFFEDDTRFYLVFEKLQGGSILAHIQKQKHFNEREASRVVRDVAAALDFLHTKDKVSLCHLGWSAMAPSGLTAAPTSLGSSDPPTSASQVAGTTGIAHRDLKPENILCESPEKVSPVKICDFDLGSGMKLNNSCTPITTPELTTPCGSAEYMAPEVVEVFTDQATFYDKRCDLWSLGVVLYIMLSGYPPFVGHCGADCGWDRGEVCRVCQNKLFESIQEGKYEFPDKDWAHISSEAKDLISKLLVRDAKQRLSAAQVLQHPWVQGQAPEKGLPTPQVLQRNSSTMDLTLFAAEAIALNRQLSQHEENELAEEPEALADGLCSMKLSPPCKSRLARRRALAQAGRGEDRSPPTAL
# UniProt Q9BWT6: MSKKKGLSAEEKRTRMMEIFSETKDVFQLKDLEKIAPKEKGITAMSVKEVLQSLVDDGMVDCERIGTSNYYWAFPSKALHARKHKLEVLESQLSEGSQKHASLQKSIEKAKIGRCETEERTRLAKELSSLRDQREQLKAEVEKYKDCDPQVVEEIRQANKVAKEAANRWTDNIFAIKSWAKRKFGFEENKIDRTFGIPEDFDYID
# UniProt Q5XKP0: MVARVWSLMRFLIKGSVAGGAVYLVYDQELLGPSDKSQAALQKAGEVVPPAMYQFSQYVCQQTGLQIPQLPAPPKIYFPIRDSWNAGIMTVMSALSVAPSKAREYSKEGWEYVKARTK
# UniProt O96007: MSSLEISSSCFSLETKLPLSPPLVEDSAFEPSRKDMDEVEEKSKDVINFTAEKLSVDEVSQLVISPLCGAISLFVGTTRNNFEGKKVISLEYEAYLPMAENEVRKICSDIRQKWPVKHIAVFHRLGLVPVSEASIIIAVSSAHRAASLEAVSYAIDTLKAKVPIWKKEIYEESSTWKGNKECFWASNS
# UniProt Q5JRA6: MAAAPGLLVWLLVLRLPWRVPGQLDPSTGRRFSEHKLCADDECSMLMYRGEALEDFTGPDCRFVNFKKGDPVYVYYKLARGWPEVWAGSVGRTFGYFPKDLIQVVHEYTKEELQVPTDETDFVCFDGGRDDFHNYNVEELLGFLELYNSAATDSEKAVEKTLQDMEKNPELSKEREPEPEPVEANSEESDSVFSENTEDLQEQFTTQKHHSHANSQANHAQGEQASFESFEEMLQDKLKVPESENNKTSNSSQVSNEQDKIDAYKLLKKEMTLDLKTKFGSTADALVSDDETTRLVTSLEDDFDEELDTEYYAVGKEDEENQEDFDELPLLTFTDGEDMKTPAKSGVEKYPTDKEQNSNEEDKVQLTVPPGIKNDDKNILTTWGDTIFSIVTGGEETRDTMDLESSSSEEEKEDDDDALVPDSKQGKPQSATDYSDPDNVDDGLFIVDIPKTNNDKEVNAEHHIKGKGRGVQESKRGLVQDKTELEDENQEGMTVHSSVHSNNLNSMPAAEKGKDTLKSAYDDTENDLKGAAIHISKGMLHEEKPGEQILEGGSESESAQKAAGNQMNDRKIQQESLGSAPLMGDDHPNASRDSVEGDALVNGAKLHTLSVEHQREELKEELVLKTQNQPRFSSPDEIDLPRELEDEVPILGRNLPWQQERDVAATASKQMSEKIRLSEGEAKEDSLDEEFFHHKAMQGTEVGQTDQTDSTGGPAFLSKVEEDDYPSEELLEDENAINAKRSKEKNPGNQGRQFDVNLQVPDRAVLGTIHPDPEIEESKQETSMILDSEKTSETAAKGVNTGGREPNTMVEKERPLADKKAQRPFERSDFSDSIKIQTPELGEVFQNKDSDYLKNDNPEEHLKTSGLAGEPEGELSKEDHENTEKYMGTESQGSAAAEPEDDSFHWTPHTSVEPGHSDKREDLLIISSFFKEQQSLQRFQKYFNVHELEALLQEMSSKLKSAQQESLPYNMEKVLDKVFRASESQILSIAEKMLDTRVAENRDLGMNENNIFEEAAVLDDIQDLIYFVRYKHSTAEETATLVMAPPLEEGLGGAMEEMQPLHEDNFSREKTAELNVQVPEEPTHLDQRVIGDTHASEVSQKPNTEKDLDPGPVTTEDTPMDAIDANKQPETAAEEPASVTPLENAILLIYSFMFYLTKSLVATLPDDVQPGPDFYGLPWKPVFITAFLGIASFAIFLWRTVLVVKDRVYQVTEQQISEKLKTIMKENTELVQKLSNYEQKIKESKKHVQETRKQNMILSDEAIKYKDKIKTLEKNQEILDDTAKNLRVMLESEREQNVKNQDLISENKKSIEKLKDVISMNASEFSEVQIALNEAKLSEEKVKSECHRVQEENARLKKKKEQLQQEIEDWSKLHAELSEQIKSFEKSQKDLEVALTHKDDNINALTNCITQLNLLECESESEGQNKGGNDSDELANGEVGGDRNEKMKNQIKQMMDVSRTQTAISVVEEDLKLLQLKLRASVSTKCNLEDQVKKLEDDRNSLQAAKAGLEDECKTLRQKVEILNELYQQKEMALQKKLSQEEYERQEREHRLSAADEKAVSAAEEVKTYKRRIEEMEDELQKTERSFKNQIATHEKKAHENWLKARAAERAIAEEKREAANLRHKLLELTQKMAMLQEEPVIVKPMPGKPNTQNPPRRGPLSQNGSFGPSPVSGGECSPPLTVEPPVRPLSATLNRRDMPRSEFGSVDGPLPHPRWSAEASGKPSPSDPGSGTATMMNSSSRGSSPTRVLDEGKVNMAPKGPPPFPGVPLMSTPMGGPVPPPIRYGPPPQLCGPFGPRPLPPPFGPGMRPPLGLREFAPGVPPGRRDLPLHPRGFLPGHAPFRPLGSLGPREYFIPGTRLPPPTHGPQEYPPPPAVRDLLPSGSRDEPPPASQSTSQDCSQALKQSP
# UniProt Q9UNW1: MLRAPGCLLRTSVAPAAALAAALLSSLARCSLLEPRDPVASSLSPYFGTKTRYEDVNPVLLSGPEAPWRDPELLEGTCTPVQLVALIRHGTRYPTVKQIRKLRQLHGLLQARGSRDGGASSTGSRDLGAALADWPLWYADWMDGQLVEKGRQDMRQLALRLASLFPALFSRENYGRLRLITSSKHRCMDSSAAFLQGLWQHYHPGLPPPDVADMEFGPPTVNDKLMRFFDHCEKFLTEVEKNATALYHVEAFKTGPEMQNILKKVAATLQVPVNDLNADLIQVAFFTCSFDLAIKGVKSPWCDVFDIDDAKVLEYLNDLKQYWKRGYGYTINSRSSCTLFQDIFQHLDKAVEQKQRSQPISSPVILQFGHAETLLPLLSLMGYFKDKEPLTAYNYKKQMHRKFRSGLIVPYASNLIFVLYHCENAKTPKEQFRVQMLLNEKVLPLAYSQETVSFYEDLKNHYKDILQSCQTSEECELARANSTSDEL
# UniProt Q7Z3K6: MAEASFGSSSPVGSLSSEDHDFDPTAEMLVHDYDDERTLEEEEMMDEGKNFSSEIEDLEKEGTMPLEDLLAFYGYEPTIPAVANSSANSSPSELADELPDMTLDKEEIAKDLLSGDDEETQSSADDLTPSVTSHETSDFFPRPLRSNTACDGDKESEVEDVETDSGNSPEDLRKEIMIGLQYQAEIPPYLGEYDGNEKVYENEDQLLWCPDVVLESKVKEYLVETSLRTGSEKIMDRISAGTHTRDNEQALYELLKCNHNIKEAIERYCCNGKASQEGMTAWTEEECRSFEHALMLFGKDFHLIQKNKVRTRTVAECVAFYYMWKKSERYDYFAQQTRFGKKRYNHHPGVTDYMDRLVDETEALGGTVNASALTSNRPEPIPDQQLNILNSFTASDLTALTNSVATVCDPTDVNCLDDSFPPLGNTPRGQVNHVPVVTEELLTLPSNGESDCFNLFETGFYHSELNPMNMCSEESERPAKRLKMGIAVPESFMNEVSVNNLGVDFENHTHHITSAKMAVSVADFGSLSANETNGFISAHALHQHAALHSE
# UniProt Q8NHP6: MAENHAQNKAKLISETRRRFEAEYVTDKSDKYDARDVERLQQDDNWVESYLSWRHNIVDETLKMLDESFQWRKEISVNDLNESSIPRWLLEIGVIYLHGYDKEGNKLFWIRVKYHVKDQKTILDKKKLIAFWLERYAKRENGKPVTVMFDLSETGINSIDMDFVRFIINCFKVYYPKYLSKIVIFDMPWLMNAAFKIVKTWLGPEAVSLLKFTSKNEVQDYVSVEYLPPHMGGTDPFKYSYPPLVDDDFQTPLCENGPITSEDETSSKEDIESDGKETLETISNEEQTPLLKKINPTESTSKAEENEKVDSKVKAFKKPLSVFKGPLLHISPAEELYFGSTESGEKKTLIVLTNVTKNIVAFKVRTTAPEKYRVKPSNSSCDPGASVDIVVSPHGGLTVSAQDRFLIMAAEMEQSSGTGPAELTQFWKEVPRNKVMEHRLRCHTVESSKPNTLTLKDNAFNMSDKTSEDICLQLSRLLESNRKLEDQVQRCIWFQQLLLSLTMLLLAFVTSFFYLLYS
# UniProt Q70IA6: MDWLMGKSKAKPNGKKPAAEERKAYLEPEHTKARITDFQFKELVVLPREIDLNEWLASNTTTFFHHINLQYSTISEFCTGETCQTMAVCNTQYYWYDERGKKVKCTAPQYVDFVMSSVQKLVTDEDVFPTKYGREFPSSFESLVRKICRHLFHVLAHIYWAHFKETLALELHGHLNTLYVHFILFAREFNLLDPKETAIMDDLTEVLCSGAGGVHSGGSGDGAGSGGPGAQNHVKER
# UniProt Q9H081: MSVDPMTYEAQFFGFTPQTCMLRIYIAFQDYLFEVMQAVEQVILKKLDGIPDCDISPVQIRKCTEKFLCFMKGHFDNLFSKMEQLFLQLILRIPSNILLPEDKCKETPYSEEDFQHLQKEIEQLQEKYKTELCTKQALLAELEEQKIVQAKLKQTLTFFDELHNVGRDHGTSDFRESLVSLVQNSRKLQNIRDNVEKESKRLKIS
# UniProt Q9NV56, whole entry, looked up: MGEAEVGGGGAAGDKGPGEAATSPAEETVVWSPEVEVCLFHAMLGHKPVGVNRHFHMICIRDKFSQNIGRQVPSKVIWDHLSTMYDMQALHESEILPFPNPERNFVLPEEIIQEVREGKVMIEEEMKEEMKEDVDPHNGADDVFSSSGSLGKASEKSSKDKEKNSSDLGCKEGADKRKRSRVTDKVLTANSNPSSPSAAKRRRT
# UniProt Q9UQ53: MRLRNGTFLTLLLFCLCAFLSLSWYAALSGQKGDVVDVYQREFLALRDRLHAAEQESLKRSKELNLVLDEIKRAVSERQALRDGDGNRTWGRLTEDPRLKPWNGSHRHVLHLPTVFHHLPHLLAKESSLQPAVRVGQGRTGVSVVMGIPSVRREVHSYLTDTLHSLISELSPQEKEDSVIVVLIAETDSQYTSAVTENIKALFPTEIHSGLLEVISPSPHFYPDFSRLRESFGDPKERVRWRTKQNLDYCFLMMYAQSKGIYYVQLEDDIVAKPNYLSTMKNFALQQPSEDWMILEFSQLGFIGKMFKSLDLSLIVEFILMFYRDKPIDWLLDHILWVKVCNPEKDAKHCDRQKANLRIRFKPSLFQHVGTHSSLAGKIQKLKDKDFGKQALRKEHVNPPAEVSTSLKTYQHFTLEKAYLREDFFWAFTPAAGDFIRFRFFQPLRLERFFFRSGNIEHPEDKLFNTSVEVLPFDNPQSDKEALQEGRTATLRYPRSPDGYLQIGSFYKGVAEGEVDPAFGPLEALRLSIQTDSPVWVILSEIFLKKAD
# Some of the results follow.
# Compound: Cc1sc2c(c1C)C(c1ccc(Cl)cc1)=N[C@@H](CC(=O)OC(C)(C)C)c1nnc(C)n1-2
# Test: log2 fold change, soluble protein after heating vs DMSO (PISA); higher = thermal stabilisation; K562 lysate, 10 uM; active = over 0.2 and 3.5 SD of the protein, either way, in both replicates (recomputed)
# In short: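 K562 pellets were dounce-homogenised in PBS pH 7.4 with 1 mM MgCl2, and the crude extract at 1 mg/mL protein was treated with 10 μM compound for 30 min. Aliquots were heated for 3 min across 48°C-58°C, pooled, and brought to 0.5% NP-40 at 4°C; soluble protein was the supernatant after 21,000xg for 90 min. Soluble protein was quantified by TMTpro 16plex LC-MS/MS with channel sums equalised, and reported as log2 fold change in thermal stability against DMSO controls, with values from duplicates.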
row,Target,log2 fold change
1,MINDY1 isoform 3 (UniProt Q8N5J2),inactive: 0.028
2,MOCOS (UniProt Q96EN8),inactive: 0.011
3,MORC3 (UniProt Q14149),inactive: 0.013
4,MLLT1 (UniProt Q03111),inactive: 0.048
5,MIEF1 (UniProt L0R8F8),inactive: -0.025
6,MR1 (UniProt Q95460),inactive: 0.158
7,MORF4L1 isoform 2 (UniProt Q9UBU8),inactive: -0.041
8,MIA2 (UniProt Q96PC5),inactive: -0.031
9,MON1A (UniProt Q86VX9),inactive: 0.049
10,MRI1 (UniProt Q9BV20),inactive: -0.03
11,MKNK1 (UniProt Q9BUB5),inactive: 0
12,MND1 (UniProt Q9BWT6),inactive: 0.024
13,MPG (UniProt P29372),inactive: -0.059
14,MGST3 (UniProt O14880),inactive: -0.072
15,MICOS13 (UniProt Q5XKP0),inactive: 0.045
16,MRPL15 (UniProt Q9P015),inactive: 0.04
17,MOCS2 (UniProt O96007),inactive: -0.016
18,MRPL14 (UniProt Q6P1L8),inactive: 0.068
19,MINK1 (UniProt Q8N4C8),inactive: -0.066

# Single values from above:
# Value of MPG (UniProt P29372) under log2 fold change: inactive: -0.059
# Value of MOCS2 (UniProt O96007) under log2 fold change: inactive: -0.016

# (cont.)

row,Target,log2 fold change
1,MIER2 (UniProt Q8N344),inactive: -0.021
2,MMADHC (UniProt Q9H3L0),inactive: -0.08
3,MIA3 (UniProt Q5JRA6),inactive: -0.009
4,MINPP1 (UniProt Q9UNW1),inactive: 0.006
5,MOB1B isoform 2 (UniProt Q7L9L4),inactive: -0.042
6,MIER3 isoform 2 (UniProt Q7Z3K6),inactive: 0.034
7,MKRN1 (UniProt Q9UHC7),inactive: 0.037
8,MPRIP isoform 2 (UniProt Q6WCQ1),inactive: -0.072
9,MRPL12 (UniProt P52815),inactive: 0.027
10,MPP5 (UniProt Q8N3R9),inactive: 0.029
11,MOSPD2 (UniProt Q8NHP6),inactive: -0.078
12,MOB2 isoform 3 (UniProt Q70IA6),inactive: 0.067
13,MIS12 (UniProt Q9H081),inactive: 0.004
14,MICALL2 (UniProt Q8IY33),inactive: -0.05
15,MRGBP (UniProt Q9NV56),inactive: -0.022
16,MIER1 isoform 12 (UniProt Q8N108),inactive: -0.005
17,MRPL16 (UniProt Q9NX20),inactive: 0.079
18,MGAT4B isoform 3 (UniProt Q9UQ53),inactive: 0.074
